Experimental findings from publication PMC11681874 are described below.

In this experiment the target is T1, RXRα (UniProt P28700).
T1 sequence: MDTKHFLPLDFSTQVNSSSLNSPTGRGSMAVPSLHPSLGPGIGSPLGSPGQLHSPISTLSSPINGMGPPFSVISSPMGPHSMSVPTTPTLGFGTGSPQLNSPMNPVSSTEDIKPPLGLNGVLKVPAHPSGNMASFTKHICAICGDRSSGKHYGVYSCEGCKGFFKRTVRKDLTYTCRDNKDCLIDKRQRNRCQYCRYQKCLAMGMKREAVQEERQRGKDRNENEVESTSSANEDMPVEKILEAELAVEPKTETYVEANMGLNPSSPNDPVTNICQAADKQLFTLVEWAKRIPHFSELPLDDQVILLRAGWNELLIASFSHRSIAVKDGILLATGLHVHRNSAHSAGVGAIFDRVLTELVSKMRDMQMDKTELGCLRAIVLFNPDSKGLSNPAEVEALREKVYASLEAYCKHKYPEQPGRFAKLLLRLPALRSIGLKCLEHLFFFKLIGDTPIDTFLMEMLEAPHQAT
Kind of experiment: co-IP; immunoprecipitation with anti-RXRα antibody of exogenously expressed proteins as indicated, in differentiated 3T3-L1 cells; no methods section for the co-IP.

No constants are given. Whether binding was seen depends on the method and setting. In cells and extracts the contact can be indirect. Binding can be weak; no strength is given.

For the substance Zinc finger protein 407, the binding entry was “binds”.
